Source: the M2OR odorant receptor database
The entries are a selection whose mix differs from that of the whole data set. Calls are pooled over several reports, among them a noisy single-well screen. The list shows a part of the results.

What was measured:
Settings in all cases: stereoisomer not certain
OR5M1 = system: T1, OR5M1
T1 sequence (whole entry): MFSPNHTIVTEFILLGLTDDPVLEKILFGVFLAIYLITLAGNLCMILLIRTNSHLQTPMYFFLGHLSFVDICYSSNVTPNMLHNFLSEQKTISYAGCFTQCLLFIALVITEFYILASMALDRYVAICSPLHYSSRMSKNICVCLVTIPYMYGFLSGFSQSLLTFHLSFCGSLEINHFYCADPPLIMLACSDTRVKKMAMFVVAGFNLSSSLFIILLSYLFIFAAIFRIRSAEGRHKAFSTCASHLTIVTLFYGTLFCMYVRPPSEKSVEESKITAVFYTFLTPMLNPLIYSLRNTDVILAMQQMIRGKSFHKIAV
Summary of the method: (§1)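 Assay methods differ from source to source, frequently being transient luciferase assays in mammalian cell lines. For each receptor–molecule pair, the label responsive (active) applies when the original authors judged the measured signal statistically different from baseline, and non-responsive (inactive) applies otherwise.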

OR5M8 (Homo sapiens) = target: T2, OR5M8 (Homo sapiens) (UniProt Q8NGP6)
T2 sequence (whole entry): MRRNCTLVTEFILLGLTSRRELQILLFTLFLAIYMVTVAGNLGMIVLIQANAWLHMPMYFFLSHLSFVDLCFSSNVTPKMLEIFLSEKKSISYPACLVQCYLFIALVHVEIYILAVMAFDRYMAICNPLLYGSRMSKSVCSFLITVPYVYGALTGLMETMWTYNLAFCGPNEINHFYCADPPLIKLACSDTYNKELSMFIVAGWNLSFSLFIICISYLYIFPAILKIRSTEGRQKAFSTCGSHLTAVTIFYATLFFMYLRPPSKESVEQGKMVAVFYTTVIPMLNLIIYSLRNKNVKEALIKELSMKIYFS
Summary of the method: as §1

OR5M9 (Homo sapiens) = target: T3, OR5M9 (Homo sapiens) (UniProt Q8NGP3)
T3 sequence (whole entry): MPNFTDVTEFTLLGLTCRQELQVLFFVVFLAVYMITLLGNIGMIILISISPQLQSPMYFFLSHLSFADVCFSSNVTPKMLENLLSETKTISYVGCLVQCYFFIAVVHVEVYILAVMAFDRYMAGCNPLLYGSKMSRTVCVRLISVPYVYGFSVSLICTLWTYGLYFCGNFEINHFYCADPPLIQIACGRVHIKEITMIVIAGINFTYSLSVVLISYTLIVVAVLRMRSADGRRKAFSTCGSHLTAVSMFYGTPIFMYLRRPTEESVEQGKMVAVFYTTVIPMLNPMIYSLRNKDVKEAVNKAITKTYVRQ
Summary of the method: as §1

OR5MA = system: T4, OR5MA
T4 sequence (whole entry): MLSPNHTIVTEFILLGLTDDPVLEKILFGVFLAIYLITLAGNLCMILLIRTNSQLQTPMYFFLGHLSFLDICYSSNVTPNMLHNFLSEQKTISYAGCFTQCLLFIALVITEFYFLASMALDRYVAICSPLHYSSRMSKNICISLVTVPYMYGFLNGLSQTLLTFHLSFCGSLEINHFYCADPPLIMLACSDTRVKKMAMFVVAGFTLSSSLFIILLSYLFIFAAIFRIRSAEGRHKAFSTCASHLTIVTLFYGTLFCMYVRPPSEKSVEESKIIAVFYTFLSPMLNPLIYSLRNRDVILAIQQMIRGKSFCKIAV
Summary of the method: as §1

OR5P2 (Homo sapiens) = target: T5, OR5P2 (Homo sapiens) (UniProt Q8WZ92)
T5 sequence (whole entry): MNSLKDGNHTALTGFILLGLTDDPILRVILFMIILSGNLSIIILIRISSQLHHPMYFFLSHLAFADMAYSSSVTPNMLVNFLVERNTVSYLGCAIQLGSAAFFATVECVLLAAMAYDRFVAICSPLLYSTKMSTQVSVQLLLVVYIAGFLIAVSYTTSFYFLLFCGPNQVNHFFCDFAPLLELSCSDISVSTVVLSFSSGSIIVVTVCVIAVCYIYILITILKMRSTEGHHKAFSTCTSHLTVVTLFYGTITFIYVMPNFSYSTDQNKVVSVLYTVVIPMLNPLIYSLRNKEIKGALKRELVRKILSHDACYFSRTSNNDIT
Summary of the method: as §1

OR5P3 (Homo sapiens) = target: T6, OR5P3 (Homo sapiens) (UniProt Q8WZ94)
T6 sequence (whole entry): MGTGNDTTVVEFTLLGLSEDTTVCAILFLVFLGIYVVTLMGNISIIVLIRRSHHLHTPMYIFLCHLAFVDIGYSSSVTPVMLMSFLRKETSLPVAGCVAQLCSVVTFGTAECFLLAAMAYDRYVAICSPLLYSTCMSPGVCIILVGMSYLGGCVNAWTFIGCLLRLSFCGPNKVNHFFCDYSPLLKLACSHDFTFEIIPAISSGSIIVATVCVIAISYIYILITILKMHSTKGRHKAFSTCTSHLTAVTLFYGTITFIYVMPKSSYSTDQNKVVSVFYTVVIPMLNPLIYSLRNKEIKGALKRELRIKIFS
Summary of the method: as §1

OR5R1 = system: T7, OR5R1
T7 sequence (whole entry): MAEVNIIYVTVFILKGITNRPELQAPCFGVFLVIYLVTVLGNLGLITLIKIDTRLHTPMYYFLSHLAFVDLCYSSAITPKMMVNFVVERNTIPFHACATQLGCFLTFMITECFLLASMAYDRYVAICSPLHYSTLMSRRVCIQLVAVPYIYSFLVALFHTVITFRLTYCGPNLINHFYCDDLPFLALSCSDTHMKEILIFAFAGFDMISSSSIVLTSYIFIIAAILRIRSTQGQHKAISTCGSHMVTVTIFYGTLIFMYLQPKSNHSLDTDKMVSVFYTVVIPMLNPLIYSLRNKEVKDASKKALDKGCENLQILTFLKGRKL
Summary of the method: as §1

OR5T1 (Homo sapiens) = target: T8, OR5T1 (Homo sapiens) (UniProt Q8NG75)
T8 sequence (whole entry): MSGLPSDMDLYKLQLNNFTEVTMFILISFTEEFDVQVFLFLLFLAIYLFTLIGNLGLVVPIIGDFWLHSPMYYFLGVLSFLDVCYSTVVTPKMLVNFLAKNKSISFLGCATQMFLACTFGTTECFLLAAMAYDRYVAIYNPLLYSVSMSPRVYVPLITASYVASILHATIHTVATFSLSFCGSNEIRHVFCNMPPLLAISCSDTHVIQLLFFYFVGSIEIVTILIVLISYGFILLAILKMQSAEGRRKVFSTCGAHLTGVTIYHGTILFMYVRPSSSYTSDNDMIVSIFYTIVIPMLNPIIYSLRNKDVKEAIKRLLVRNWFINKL
Summary of the method: as §1

OR5T1 = system: T9, OR5T1
T9 sequence (whole entry): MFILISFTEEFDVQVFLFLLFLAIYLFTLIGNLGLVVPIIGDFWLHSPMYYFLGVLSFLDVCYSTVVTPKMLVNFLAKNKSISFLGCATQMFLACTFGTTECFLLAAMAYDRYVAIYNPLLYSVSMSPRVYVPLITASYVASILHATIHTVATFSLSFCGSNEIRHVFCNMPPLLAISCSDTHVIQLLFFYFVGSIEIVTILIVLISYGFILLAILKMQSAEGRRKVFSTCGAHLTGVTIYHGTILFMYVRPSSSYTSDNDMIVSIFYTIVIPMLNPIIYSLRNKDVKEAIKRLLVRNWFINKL
Summary of the method: as §1

OR5T2 [1] = system: T10, OR5T2
T10 sequence (whole entry): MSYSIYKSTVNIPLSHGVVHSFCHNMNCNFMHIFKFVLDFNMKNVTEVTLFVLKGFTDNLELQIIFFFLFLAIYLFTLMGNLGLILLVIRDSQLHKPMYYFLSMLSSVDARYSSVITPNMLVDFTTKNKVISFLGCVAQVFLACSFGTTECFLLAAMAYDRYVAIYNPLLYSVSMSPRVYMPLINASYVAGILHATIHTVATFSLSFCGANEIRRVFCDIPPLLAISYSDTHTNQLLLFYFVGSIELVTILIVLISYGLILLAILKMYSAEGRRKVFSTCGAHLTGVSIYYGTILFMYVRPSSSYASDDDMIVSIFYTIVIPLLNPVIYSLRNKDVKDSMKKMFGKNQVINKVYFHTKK
Summary of the method: as §1

OR5T2 [2] = system: T11, OR5T2; remark: listed apart in the source
T11 sequence (whole entry): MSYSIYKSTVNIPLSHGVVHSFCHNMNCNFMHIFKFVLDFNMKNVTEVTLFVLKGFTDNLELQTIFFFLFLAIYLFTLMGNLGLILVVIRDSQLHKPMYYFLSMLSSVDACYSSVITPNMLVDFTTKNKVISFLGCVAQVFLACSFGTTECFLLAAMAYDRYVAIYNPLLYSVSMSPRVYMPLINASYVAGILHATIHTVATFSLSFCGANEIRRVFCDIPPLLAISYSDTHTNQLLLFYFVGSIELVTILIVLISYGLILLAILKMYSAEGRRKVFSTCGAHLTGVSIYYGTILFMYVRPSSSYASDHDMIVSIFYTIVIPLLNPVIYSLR
Summary of the method: as §1

OR5T3 = system: T12, OR5T3
T12 sequence (whole entry): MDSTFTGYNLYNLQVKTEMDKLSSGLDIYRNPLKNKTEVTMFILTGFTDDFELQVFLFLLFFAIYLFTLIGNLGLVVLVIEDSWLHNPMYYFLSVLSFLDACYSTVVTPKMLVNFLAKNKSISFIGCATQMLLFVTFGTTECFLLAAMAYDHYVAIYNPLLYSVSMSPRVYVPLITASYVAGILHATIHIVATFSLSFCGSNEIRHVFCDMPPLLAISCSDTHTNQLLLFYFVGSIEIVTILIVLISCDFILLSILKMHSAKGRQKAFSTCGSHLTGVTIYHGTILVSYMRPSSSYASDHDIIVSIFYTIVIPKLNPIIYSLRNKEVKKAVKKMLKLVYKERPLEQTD
Summary of the method: as §1

OR5V1 (Homo sapiens) = target: T13, OR5V1 (Homo sapiens) (UniProt Q9UGF6)
T13 sequence (whole entry): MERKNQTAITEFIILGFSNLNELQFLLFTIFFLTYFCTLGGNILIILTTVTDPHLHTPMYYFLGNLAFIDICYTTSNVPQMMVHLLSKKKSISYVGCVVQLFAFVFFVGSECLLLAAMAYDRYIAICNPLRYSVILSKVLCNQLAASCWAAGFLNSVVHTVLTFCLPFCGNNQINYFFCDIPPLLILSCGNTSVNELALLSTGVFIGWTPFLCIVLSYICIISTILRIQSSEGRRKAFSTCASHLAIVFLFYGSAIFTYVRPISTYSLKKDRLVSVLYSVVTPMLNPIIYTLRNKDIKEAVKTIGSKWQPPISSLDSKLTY
Summary of the method: as §1

OR5W2 = system: T14, OR5W2
T14 sequence (whole entry): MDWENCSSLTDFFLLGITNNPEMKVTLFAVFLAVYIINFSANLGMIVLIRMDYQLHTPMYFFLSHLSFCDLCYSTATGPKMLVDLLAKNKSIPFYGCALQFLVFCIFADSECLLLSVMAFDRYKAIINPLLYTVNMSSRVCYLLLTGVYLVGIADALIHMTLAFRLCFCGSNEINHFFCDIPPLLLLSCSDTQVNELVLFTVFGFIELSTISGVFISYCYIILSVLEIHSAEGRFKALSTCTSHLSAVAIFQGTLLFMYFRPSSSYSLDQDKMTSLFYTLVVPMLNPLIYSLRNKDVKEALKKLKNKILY
Summary of the method: as §1

OR6A2 (Homo sapiens) = target: T15, OR6A2 (Homo sapiens) (UniProt O95222)
T15 sequence (whole entry): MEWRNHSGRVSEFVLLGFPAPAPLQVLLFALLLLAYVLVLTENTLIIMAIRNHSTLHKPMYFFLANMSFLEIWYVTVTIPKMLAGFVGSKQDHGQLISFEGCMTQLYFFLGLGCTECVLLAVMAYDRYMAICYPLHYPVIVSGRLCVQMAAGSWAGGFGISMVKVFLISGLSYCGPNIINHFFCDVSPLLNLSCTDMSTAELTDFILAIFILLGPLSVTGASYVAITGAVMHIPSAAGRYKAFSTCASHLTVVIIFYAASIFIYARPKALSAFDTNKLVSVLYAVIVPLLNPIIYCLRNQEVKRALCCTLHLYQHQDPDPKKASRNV
Summary of the method: as §1

OR6B1 = system: T16, OR6B1
T16 sequence (whole entry): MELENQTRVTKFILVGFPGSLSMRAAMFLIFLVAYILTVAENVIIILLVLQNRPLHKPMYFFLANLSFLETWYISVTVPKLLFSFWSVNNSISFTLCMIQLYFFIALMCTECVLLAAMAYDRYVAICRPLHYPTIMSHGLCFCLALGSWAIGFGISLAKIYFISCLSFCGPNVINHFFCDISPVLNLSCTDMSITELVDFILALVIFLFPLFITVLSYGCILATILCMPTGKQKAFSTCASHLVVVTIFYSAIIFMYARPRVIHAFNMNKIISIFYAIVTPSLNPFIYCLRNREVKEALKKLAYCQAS
Summary of the method: as §1

OR6B2 = system: T17, OR6B2
T17 sequence (whole entry): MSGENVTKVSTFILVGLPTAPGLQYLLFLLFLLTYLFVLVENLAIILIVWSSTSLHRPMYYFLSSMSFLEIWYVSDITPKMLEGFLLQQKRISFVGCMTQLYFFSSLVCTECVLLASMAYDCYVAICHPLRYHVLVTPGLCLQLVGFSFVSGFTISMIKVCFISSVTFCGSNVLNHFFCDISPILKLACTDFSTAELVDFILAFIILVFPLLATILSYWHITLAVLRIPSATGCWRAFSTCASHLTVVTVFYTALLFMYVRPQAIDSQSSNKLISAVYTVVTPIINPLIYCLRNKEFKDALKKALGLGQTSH
Summary of the method: as §1

OR6B3 = system: T18, OR6B3
T18 sequence (whole entry): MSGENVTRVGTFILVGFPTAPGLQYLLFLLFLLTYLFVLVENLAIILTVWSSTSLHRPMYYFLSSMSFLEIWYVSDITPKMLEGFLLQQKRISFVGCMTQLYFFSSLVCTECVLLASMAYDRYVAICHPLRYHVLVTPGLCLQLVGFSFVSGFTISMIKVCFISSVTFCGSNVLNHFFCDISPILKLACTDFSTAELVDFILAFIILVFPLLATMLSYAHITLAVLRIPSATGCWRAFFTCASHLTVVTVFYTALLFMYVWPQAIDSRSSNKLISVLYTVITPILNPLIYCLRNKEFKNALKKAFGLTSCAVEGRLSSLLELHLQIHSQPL
Summary of the method: as §1

OR6C1 = system: T19, OR6C1
T19 sequence (whole entry): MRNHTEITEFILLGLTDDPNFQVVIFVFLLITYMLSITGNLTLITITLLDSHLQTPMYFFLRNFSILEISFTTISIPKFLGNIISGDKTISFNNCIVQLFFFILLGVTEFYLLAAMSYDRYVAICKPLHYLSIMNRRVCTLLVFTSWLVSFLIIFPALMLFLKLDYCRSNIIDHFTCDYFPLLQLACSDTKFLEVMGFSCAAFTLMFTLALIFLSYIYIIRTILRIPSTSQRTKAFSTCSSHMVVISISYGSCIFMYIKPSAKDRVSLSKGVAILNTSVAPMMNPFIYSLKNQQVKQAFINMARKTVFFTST
Summary of the method: as §1

Measured: odorant receptor agonist call

CCC(C)=O
inactive: all assays above

CS
inactive: all assays above
